The results in this text go back to ChEMBL document CHEMBL4477199, “Design and synthesis of novel bicalutamide and enzalutamide derivatives as antiproliferative agents for the treatment of prostate cancer” (Eur J Med Chem, 2016).

For series [1] the following is noted: 33000 µM.
The conditions of series [2]: 96 h.

Turning to `CC(O)(CSc1ccccc1C(F)(F)F)C(=O)Nc1ccc(C#N)c(C(F)(F)F)c1` (stereo unspecified), the solubility entry in series [1] and in series [2] was “Soluble” each time.
`CC(O)(COc1ccc(C#N)cc1C(F)(F)F)C(=O)Nc1ccc([N+](=O)[O-])c(C(F)(F)F)c1` (stereo unspecified): the solubility entry in series [1] and in series [2] was “Soluble” throughout.
For `C[C@](O)(CSc1ccccc1C(F)(F)F)C(=O)Nc1ccc(C#N)c(C(F)(F)F)c1`, the solubility result in series [1] and in series [2] was “Soluble” each time.
